Screen size: about 330,000 compounds; about 7,700 (2.3%) were called active. Inconclusive means that the source gave no clear call. Such entries were picked first, then a sample of the others. Calls come from the whole dose curve; as a rule, active = well fitted inhibition curve with a large enough effect; inconclusive = small, poorly fitted or top-dose-only effect, or effect the other way; inactive = flat fitted curve, though single readings scatter. Where the call is inconclusive, the potency comes from a doubtful curve fit.
experiment: qHTS screen for small molecules that inhibit ELG1-dependent DNA repair in human embryonic kidney (HEK293T) cells expressing luciferase-tagged ELG1; conditions: HEK293T ELG1-luciferase reporter, luminescence, 16 h, DNA damage induced by 5-fluorouridine; activity change, negative = inhibition: at 46.1 µM (top of the series); note: nearly all actives have a fitted effect of over 55% in size
In short: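 HEK293T cells expressing luciferase-tagged ELG1 (2,000/well) received 5-Fluorouridine plus compound or DMSO for 16 hr at 37 °C. Luciferase was read by ONE-Glo luminescence after 30 min at room temperature.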
% is set by controls: 0 for no effect and ±100 for the full control effect; potency is the fitted concentration of half-maximal effect.

| SMILES | Potency | activity change, negative = inhibition |
| --- | --- | --- |
| Oc1ccc(/C=N/Nc2cc(N3CCOCC3)nc(N3CCOCC3)n2)cc1O | inconclusive: 13 µM [inhibitor, partial curve] |  |
| CCN(C(=O)CN1CCN(c2ccccc2OC)CC1)c1c(N)n(Cc2ccccc2)c(=O)[nH]c1=O |  | inactive: 4.67% |
| CC1CCN(Cc2c(C(=O)N/N=C/c3cc(Cl)ccc3O)nnn2-c2nonc2N)CC1 | active: 2.06 µM |  |
| COc1ccc(NC(=O)CSc2nnc(-c3ccccc3C)n2C)cc1 | inconclusive: 5.17 µM [inhibitor, single point] |  |
| O=c1c2[nH]c3ccccc3c2ncn1CCN1CCCCC1 | inconclusive: 16.4 µM [activator, partial curve, poor fit] |  |
| NC(=O)C1=C[C@H](c2ccc3c(c2)OCO3)C[C@H](OCc2ccc(CO)cc2)O1 | inconclusive: 20.6 µM [activator, partial curve] |  |
| COCCCC1CCN(Cc2nc(-c3ccccc3)no2)CC1 | inconclusive: 20.6 µM [activator, single point] |  |
| O=C(Cc1cccs1)N1CCCC(c2nc(-c3ccc(S(=O)(=O)N4CCCC4)cc3)no2)C1 (configuration not stated) | inconclusive: 14.6 µM [inhibitor, partial curve] |  |
| O=C(O)c1ccc(-n2c(/C=C/c3cccc([N+](=O)[O-])c3)nc3ccccc3c2=O)cc1 | inconclusive: 29.1 µM [inhibitor, single point] |  |
| COc1cccc(C(=O)NNC(=O)C(=O)Nc2cccc(Cl)c2C)c1 |  | inactive: 21% |
| O=C(NC1CCCCCC1)C1CCC(=O)N(Cc2ccccc2F)C1 (configuration not stated) |  | inactive: 20.8% |
| COC(=O)/C(C#N)=C1/C=Cc2ccccc2N1 | inconclusive: 18.3 µM [activator, partial curve] |  |
| CC(/C=N/NC(=O)CSc1ccccn1)=C\c1ccc(C(C)C)cc1 | inconclusive: 14.6 µM [activator, partial curve] |  |
| O=C(c1ccco1)N1CCN(Cc2c(Cl)cccc2Cl)CC1 | inconclusive: 23.1 µM [activator, partial curve] |  |
| O=C(CNC(=O)c1ccccn1)N/N=C/c1ccc2c(c1)OCO2 | inconclusive: 29.1 µM [activator, single point] |  |
| Clc1ccccc1OCc1nc(-c2ccc(Br)o2)no1 | inconclusive: 20.6 µM [activator, partial curve] |  |
| COc1cc2c(C(=O)N3CCN(c4ccccc4)CC3)c(C)oc2cc1Br | inconclusive: 29.1 µM [inhibitor, single point] |  |
| O=C(/C=C/c1ccc(-c2ccccc2[N+](=O)[O-])o1)c1ccc(Br)cc1 |  | inactive: 0% |
| COc1ccc(-n2c(C)cc(C(=O)Cn3nnc4ccccc4c3=O)c2C)cc1 |  | inactive: 5.72% |
| CCOC(=O)c1c(C)[nH]c(N=Nc2ccc(C)cc2C)c1C | inconclusive: 5.8 µM [activator, partial curve, poor fit] |  |
| CC1(C)Cc2cccc(OCC(=O)N3CCN(S(=O)(=O)c4ccc(F)cc4)CC3)c2O1 |  | inactive: -8.98% |
| CN(CC(=O)NCc1ccccn1)S(=O)(=O)c1ccccc1 | inconclusive: 0.58 µM [activator, partial curve, poor fit] |  |
| COc1ccc(N2CCN(c3nc4c(c(=O)[nH]c(=O)n4C)n3Cc3cccc(C)c3)CC2)cc1 | inconclusive: 29.1 µM [inhibitor, single point] |  |

| SMILES | Potency | activity change, negative = inhibition |
| --- | --- | --- |
| CC(/C=C/c1ccco1)=N/NC(=O)Cc1cccs1 |  | inactive: 17.1% |
| COc1ccccc1C1CC(=O)Oc2c(C(C)C)ccc(C)c21 (configuration not stated) |  | inactive: 1.27% |
| Cc1ccc(-c2nnc(SCC(=O)N/N=C/c3c(C)nn(-c4ccccc4)c3C)n2-c2ccc(C)cc2)cc1 | inconclusive: 29.1 µM [inhibitor, single point] |  |
| CC(Sc1ccccn1)C(=O)Nc1ccc2c(c1)OCCO2 (configuration not stated) | inconclusive: 18.3 µM [activator, partial curve] |  |
| CC(C)CN(C(=O)CCNC(=O)c1ccc(Cl)cc1)C1CCS(=O)(=O)C1 (configuration not stated) | inconclusive: 20.6 µM [activator, partial curve, poor fit] |  |
| Cc1ccc(C2(C)NC(=O)N(CC(=O)N(c3ccccc3)C3CCS(=O)(=O)C3)C2=O)cc1 (configuration not stated) |  | inconclusive: 3.69% [activator] |
| COc1ccc(NC(=O)CN(C)C(=O)c2ccc(NS(=O)(=O)c3ccc4[nH]c(=O)[nH]c4c3)cc2)cc1 | inconclusive: 1.3 µM [activator, full curve, poor fit] |  |
| CCC(C(=O)O)n1nnc(-c2ccc(-c3ccc(OC)cc3)cc2)n1 (configuration not stated) | inconclusive: 23.1 µM [activator, single point] |  |
| COc1ccc(-c2nn3c(COc4ccccc4)nnc3s2)cc1OC |  | inactive: -31.3% |
| Cn1cccc1C(=O)Nc1nccs1 | inconclusive: 16.4 µM [activator, partial curve, poor fit] |  |
| CC(=O)c1ccc(NC(=O)CSc2ccc(-c3sc(C)nc3C)nn2)cc1 | active: 18.3 µM |  |
| Cc1cccc(-c2ncc(S(=O)(=O)C(C)(C)C)c(N)n2)c1 | inconclusive: 8.2 µM [activator, partial curve] |  |
| COC(=O)c1ccc(-c2cc3onc(-c4ccccc4)c3c(=O)n2C)cc1 | inconclusive: 3.16 µM [activator, partial curve] |  |
| COc1ccccc1NS(=O)(=O)c1ccc(C(=O)N2CCCCCC2)cc1 | inconclusive: 13 µM [inhibitor, partial curve] |  |
| COc1ccc(Cl)cc1NC(=O)CN(C)C(=O)C12CC3CC(CC(Cl)(C3)C1)C2 | active: 18.3 µM |  |
| Cc1ccc(CSCC(=O)N(C)CC(=O)Nc2ccccc2C(F)(F)F)cc1 |  | inactive: -6.65% |
| CCOc1ccc(C(C)=O)cc1Cn1nc(C(=O)O)c2ccccc2c1=O | inconclusive: 20.6 µM [inhibitor, single point] |  |
| CCOC(=O)c1cc(-c2ccc(Cl)cc2)nc2c1c(C)nn2CCC#N | inconclusive: 29.1 µM [inhibitor, single point] |  |
| CC(OC(=O)c1ccc(Cl)nc1)C(=O)NC1(C#N)CCCCC1 (configuration not stated) |  | inactive: 11.4% |
| O=C(/C=C/c1cccs1)c1ccc(Br)cc1 | inconclusive: 17.8 µM [activator, single point] |  |
| O=C(Nc1cccc(C(F)(F)F)c1)N(Cc1ccc(Cl)cc1)CC(O)C(F)(F)F (configuration not stated) |  | inactive: 2.77% |
| Clc1cccc(OCc2nc(-c3ccncc3)no2)c1 | inconclusive: 20.6 µM [activator, partial curve] |  |
| O=[N+]([O-])c1cc([N+](=O)[O-])c(Oc2cc(Cl)cc(Cl)c2)cc1NN1CCCCC1 | inconclusive: 29.1 µM [activator, single point] |  |

| SMILES | Potency | activity change, negative = inhibition |
| --- | --- | --- |
| CCCCSc1nc2sc3c(c2c(=O)n1-c1ccccc1)CCN(C)C3 | inconclusive: 18.3 µM [inhibitor, single point] |  |
| COc1ccc(OC)c(N/C=C2/CCCCC2=O)c1 | inconclusive: 5.8 µM [inhibitor, single point] |  |
| CN(C)NC(=S)NC1CCS(=O)(=O)C1 (configuration not stated) |  | inactive: 0.763% |
| COc1cc2[nH]c(=S)nc(NCCCOC(C)C)c2cc1OC | inconclusive: 18.4 µM [inhibitor, partial curve, poor fit] |  |
| O=C(CCn1c(=O)[nH]c2ccsc2c1=O)N1CCN(c2ccc([N+](=O)[O-])cc2)CC1 | active: 18.3 µM |  |
| COc1cccc(Nc2ncnc3onc(-c4ccccc4OC)c23)c1 |  | inactive: -6.26% |
| Cn1c(-n2c(CCN3C(=O)c4ccccc4C3=O)nc3ccccc3c2=O)nc2ccccc21 | inconclusive: 23.1 µM [inhibitor, single point] |  |
| O=C(COc1ccc(S(=O)(=O)N2CCOCC2)cc1)Nc1ccc(Cl)c(C(F)(F)F)c1 | inconclusive: 23.1 µM [inhibitor, single point] |  |
| COc1ccc(C(=O)N/C(N)=N/c2nc3ccccc3o2)cc1 | inconclusive: 20.6 µM [activator, single point] |  |
| COC(=O)c1ccc(CSc2nnc(-c3ccc4c(c3)OCO4)n2-c2ccccc2)o1 | inconclusive: 32.6 µM [inhibitor, single point] |  |
| Cc1cc(C)c(S(=O)(=O)Nc2nnc(C(C)C)s2)c(C)c1 |  | inactive: -1.03% |
| CCn1nc(NC(=O)COC)c2cc3cc(C)ccc3nc21 | inconclusive: 14.6 µM [activator, partial curve] |  |
| COC(=O)c1c(C)[nH]c(C(=O)/C=C/c2ccccc2Cl)c1C | inconclusive: 8.2 µM [activator, partial curve] |  |
| CCCCOc1ccc(N(CC(=O)NCC2CCCO2)C(=O)CCC(=O)Nc2nccs2)cc1 (configuration not stated) | inconclusive: 29.1 µM [inhibitor, single point] |  |
| CCOc1ccc(N2C(=O)c3ccccc3NC2(C)CC)cc1 (configuration not stated) | inconclusive: 16.4 µM [activator, partial curve] |  |
| C=C(C)Cn1c(C)cc(C)c(S(=O)(=O)c2ccccc2C)c1=O | inconclusive: 16.4 µM [inhibitor, partial curve, poor fit] |  |
| O=C(c1cccs1)N1CCCC(N2CCN(c3cccc(C(F)(F)F)c3)CC2)C1 (configuration not stated) |  | inactive: -18.5% |
| CC(C(=O)NCCCc1ccccc1)c1ccc([N+](=O)[O-])cc1 (configuration not stated) | inconclusive: 29.1 µM [inhibitor, single point] |  |
| COc1ccccc1N1CCN(C(=O)Nc2cccc(Cl)c2)CC1 | inconclusive: 11.6 µM [activator, partial curve, poor fit] |  |
| Cc1noc(C)c1CSc1nc2ccccc2c(=O)n1-c1ccc(Cl)cc1 | inconclusive: 23.1 µM [inhibitor, single point] |  |
| CCOc1cc(/C=C\c2[nH]c(=O)[nH]c(=O)c2[N+](=O)[O-])ccc1OC(C)CC (configuration not stated) | inconclusive: 25.9 µM [inhibitor, single point] |  |

At a glance, part of the list above:

| SMILES | Potency | activity change, negative = inhibition |
| --- | --- | --- |
| COC(=O)c1ccc(CSc2nnc(-c3ccc4c(c3)OCO4)n2-c2ccccc2)o1 | inconclusive: 32.6 µM [inhibitor, single point] |  |
| Cc1cc(C)c(S(=O)(=O)Nc2nnc(C(C)C)s2)c(C)c1 |  | inactive: -1.03% |
| CCn1nc(NC(=O)COC)c2cc3cc(C)ccc3nc21 | inconclusive: 14.6 µM [activator, partial curve] |  |

Two entries from above, with bars between the fields:
SMILES | Potency | activity change, negative = inhibition
CN(C)NC(=S)NC1CCS(=O)(=O)C1 (configuration not stated) |  | inactive: 0.763%
COc1cc2[nH]c(=S)nc(NCCCOC(C)C)c2cc1OC | inconclusive: 18.4 µM [inhibitor, partial curve, poor fit] | 

Reference: PubChem BioAssay AID504467 (National Center for Advancing Translational Sciences (NCATS), 2011)
